5 compounds from publication PMC11110727, “Exploiting thiol-functionalized benzosiloxaboroles for achieving diverse substitution patterns – synthesis, characterization and biological evaluation of promising antibacterial agents” (RSC Medicinal Chemistry, 2024) can be followed below.

The structures appear in SMILES notation.

In data set [1] the test system is S. aureus ATCC 43300 MRSA. Put plainly: Selectivity index SI = IC50/MIC. Type of data set: cell-based, Staphylococcus aureus. The following applies: SI = IC50 (MRC-5)/MIC.
Data set [2] deals with S. aureus MRSA clinical strains (NMI). Put plainly: Selectivity index SI = IC50/MIC. The format is cell-based, Staphylococcus aureus. The following applies: SI = IC50 (MRC-5)/MIC, from lowest and highest MIC values.

Consider `CC(=O)CSc1ccc2c(c1F)[Si](C)(C)OB2O` [Compound 22, 1-((7-Fluoro-3-hydroxy-1,1-dimethyl-1,3-dihydrobenzo[c][1,2,5]oxasilaborol-6-yl)thio)propan-2-one], for which, in data set [1], the “SI for S. aureus ATCC 43300 MRSA” value is recorded as above 32.0. In addition, the “SI range for S. aureus MRSA clinical strains (NMI)” value (“SI range” for short) in data set [2] was above 32.0.

With `C[Si]1(C)OB(O)c2ccc(SC(=O)c3ccc(C(F)(F)F)cc3)c(F)c21` [Compound 25, S-(7-Fluoro-3-hydroxy-1,1-dimethyl-1,3-dihydrobenzo[c][1,2,5]oxasilaborol-6-yl) 4-(trifluoromethyl)benzothioate], in data set [2], the “SI range” value is 4.5–8.9.

Take `C[Si]1(C)OB(O)c2cc(F)c(SC3CC(=O)NC3=O)c(F)c21` (stereo not shown) [Compound 12, 3-((5,7-Difluoro-3-hydroxy-1,1-dimethyl-1,3-dihydrobenzo[c][1,2,5]oxasilaborol-6-yl)thio)pyrrolidine-2,5-dione]: the “SI range” value in data set [2] is listed as 13.4–26.8.

As to `C[Si]1(C)OB(O)c2ccc(SCC(=O)c3ccccc3)c(F)c21` [Compound 23, 2-((7-Fluoro-3-hydroxy-1,1-dimethyl-1,3-dihydrobenzo[c][1,2,5]oxasilaborol-6-yl)thio)-1-phenylethan-1-one], the “SI range” value in data set [2] was 40.4–80.8.

`CCOP(=O)(OCC)Sc1c(F)cc2c(c1F)[Si](C)(C)OB2O` [Compound 24, S-(5,7-Difluoro-3-hydroxy-1,1-dimethyl-1,3-dihydrobenzo[c][1,2,5]oxasilaborol-6-yl) O,O-diethyl phosphorothioate]: the “SI for S. aureus ATCC 43300 MRSA” value in data set [1] is above 32.0. Moreover, in data set [2], the “SI range” value is reported as above 32.0.
